From PubChem BioAssay AID1671190 (National Center for Advancing Translational Sciences (NCATS), 2021)
Out of some 580,000 compounds screened, about 6,100 (1.1%) were called active. Inconclusive results, whose numbers are uncertain, are shown with a selection of clear calls. Calls come from the whole dose curve; as a rule, active = well fitted inhibition curve with a large enough effect; inconclusive = small, poorly fitted or top-dose-only effect, or another doubt; inactive = no such curve, though single readings can be large or run the other way. A potency beside an inconclusive call is a rough fit, not a confirmed value.

Amino acid sequences for entries named in this document (tags omitted). A change or cut given only in a name is not applied to a line headed by its entry.
UniProt P18054: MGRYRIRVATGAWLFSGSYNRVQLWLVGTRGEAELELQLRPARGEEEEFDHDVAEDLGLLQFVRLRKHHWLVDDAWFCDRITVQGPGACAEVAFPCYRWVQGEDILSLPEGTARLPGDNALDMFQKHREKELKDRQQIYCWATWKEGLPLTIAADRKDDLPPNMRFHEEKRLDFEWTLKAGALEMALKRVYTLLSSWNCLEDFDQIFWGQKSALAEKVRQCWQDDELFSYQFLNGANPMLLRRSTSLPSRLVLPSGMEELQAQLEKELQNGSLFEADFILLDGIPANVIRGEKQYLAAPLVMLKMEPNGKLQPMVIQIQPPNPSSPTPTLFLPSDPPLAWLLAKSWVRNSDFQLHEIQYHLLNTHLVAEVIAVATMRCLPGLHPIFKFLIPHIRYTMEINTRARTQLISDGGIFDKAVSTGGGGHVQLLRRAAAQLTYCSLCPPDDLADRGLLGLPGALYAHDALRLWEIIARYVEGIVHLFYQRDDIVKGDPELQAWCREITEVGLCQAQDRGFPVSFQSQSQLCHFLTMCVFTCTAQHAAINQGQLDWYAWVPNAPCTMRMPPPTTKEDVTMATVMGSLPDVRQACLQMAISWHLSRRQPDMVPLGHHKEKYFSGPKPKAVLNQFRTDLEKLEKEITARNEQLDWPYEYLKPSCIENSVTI

What follows are compounds tested against Polyunsaturated fatty acid lipoxygenase ALOX12 (Homo sapiens) (UniProt P18054) (assay: Primary qHTS assay for inhibitors of human arachidonate 12S-lipoxygenase (ALOX12): Round 2). Details: purified 12hLO, xylenol orange hydroperoxide absorbance; activity change, negative = inhibition: at 108 µM (top of the series) unless noted.
Summary of the method: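 Hydroperoxide product was detected by ferrous iron/xylenol orange as the 573 to 405 nm absorbance ratio. Arachidonic acid at 40 uM (final) was turned over for 30 min at room temperature by 150 nM human 12hLO, pH 7.0 Hepes buffer, after 15 min compound preincubation.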
% is set by controls: 0 for no effect and ±100 for the full control effect; potency is the fitted concentration of half-maximal effect.

**Q.** With CN1CCC(NC(=O)c2cccc3ccccc23)CC1 as the compound, how does the Potency read?
**A.** The Potency was inconclusive: 126 µM [inhibitor, single point].

**Q.** How did the Potency turn out when O=C(Nc1cc2c(oc1=O)CCCC2=O)c1cccc(Cl)c1 was run?
**A.** The Potency was inconclusive: 100 µM [inhibitor, partial curve, poor fit].

**Q.** Which Potency does the source give for CC1(C(=O)NS(=O)(=O)c2ccc(C#N)cc2)CCN1C(=O)Cc1ccsc1 (stereo not given) here?
**A.** The Potency was inconclusive: 8.91 µM [inhibitor, full curve, poor fit].

**Q.** With CCNc1ncc2nc(CCc3ccccc3)c(=O)n(C[C@H]3CCCO3)c2n1 as the compound, how does the Potency read?
**A.** Its Potency is active: 7.08 µM.

**Q.** Which Potency does the source give for CCOC(=O)c1c(C)sc(-c2c(-c3cccc(Cl)c3)[nH]c3c2c(=O)n(C)c(=O)n3C)c1O here?
**A.** Its Potency is inconclusive: 50.1 µM [inhibitor, partial curve, poor fit].

**Q.** With O=c1[nH]c(CNCc2cccnc2)nc2ccccc12 as the compound, how does the “activity change, negative = inhibition” value read?
**A.** Its value is inactive: 1.37%.

**Q.** For CC1(C(=O)NCc2ccccc2)CSCC(=O)N1Cc1cccc(C(F)(F)F)c1 (stereo not given), which Potency is on record?
**A.** The Potency was inconclusive: 50.1 µM [inhibitor, partial curve, poor fit].

**Q.** With CC(=O)/C=C\c1cn(-c2ncc(C(F)(F)F)cc2Cl)c2ccccc12 as the compound, how does the Potency read?
**A.** Its Potency is inconclusive: 100 µM [inhibitor, partial curve, poor fit].

**Q.** Cc1cccc(-n2c(=O)cc(N3CCN(c4ccc(F)cc4)CC3)[nH]c2=O)c1 was tested. Which Potency did it give?
**A.** The Potency was inconclusive: 112 µM [inhibitor, single point].

**Q.** For CCCNC(=O)Cn1nc(C(F)(F)F)c2c1CCC2, which Potency is on record?
**A.** The Potency was inconclusive: 89.1 µM [inhibitor, partial curve, poor fit].

**Q.** Which Potency does the source give for CC(C)CNC(=O)C(C)SCc1coc(-c2ccc(Cl)cc2)n1 (stereo not given) here?
**A.** Its Potency is inconclusive: 141 µM [inhibitor, single point].

**Q.** With N#C/C(=C\c1ccco1)c1nc2ccccc2s1 as the compound, how does the Potency read?
**A.** The Potency was inconclusive: 39.8 µM [inhibitor, partial curve, poor fit].

**Q.** For CCOC(=O)C1=C(c2ccccc2)NC(=S)NC1c1ccc(Cl)cc1 (stereo not given), which Potency is on record?
**A.** Its Potency is inconclusive: 25.1 µM [inhibitor, partial curve, poor fit].

**Q.** CC(C)c1nc(SCC(=O)c2ccc(F)cc2)c2ccccc2n1 was tested. Which Potency did it give?
**A.** Its Potency is inconclusive: 89.1 µM [inhibitor, single point].

**Q.** How did the “activity change, negative = inhibition” value turn out when COc1ccc(NC(=O)CCCn2cnc3ccccc3c2=O)cc1 was run?
**A.** Its value is inactive: -69.5%.

**Q.** Which “activity change, negative = inhibition” value does the source give for CCCn1c(CC)nc([N+](=O)[O-])c1S(=O)(=O)c1ccccc1 here?
**A.** The value was inactive: 0%.

**Q.** How did the Potency turn out when CN=C(Nc1cccnc1)c1cccc(C(F)(F)F)c1 was run?
**A.** Its Potency is inconclusive: 31.6 µM [inhibitor, partial curve, poor fit].

**Q.** With Cc1ccc(CNC(=O)CSc2nnc(CNC(=O)c3ccccc3)o2)cc1 as the compound, how does the “activity change, negative = inhibition” value read?
**A.** The value was inactive: 6.31%.

**Q.** How did the Potency turn out when CCc1nnc(NC(=O)c2nc3nc(C)cc(C)n3n2)s1 was run?
**A.** Its Potency is inconclusive: 3.16 µM [inhibitor, full curve, poor fit].

**Q.** For Cc1ccc(Cc2c(-c3ccc(Cl)cc3)nc3cc(C)c(Br)c(C)n23)cc1, which Potency is on record?
**A.** The Potency was active: 8.91 µM.

**Q.** With C[C@H](CO)N1C[C@H](C)[C@@H](CN(C)S(=O)(=O)c2ccccc2)Oc2ccc(NC(=O)Nc3ccccc3)cc2C1=O as the compound, how does the Potency read?
**A.** The Potency was inconclusive: 89.1 µM [inhibitor, single point].

**Q.** With O=C(CN(Cc1ccco1)C(=O)CCC(=O)Nc1nccs1)NCc1ccccc1 as the compound, how does the Potency read?
**A.** Its Potency is inconclusive: 5.01 µM [inhibitor, full curve, poor fit].

**Q.** With COc1ccc(CCN2C(=O)c3[nH]nc(-c4ccccc4O)c3C2c2ccccc2)cc1 (stereo not given) as the compound, how does the “activity change, negative = inhibition” value read?
**A.** The value was inactive: 2.22%.

**Q.** With COc1ccccc1C(=O)N/C(=C\c1cn(C)c2ccccc12)C(=O)NCCN1CCOCC1 as the compound, how does the Potency read?
**A.** The Potency was inconclusive: 79.4 µM [inhibitor, partial curve, poor fit].

**Q.** For COCCNC(=S)N1CCC(C(=O)c2ccc(F)cc2)CC1, which Potency is on record?
**A.** The Potency was inconclusive: 126 µM [inhibitor, single point].

**Q.** With COc1ccccc1CNc1nc(-c2ccccc2)cs1 as the compound, how does the Potency read?
**A.** Its Potency is active: 14.1 µM.

**Q.** Which Potency does the source give for CCOC(=O)Cn1cc(CN2CCS(=O)(=O)N(Cc3ccc(C)cc3)C(C(=O)OC)C2)nn1 (stereo not given) here?
**A.** The Potency was inconclusive: 35.5 µM [inhibitor, partial curve, poor fit].

**Q.** For COc1ccc(S(=O)(=O)N2CCOCC2)cc1C(=O)N1CCCC1, which “activity change, negative = inhibition” value is on record?
**A.** The value was inactive: 119%.

**Q.** For Cc1cc(C)c(S(=O)(=O)NCCn2c(C)cnc2C2CC2)c(C)c1, which “activity change, negative = inhibition” value is on record?
**A.** Its value is inactive: 12.4%.

**Q.** With O=C(c1cccs1)N(Cc1cccnc1)c1nc2c(F)cc(F)cc2s1 as the compound, how does the Potency read?
**A.** Its Potency is inconclusive: 31.6 µM [inhibitor, partial curve, poor fit].

**Q.** CCN(CCCNC(=O)c1ccc(Sc2ccc(Cl)cc2)c(NC(C)=O)c1)c1ccccc1 was tested. Which Potency did it give?
**A.** Its Potency is inconclusive: 10 µM [inhibitor, partial curve, poor fit].

**Q.** COC(=O)c1c(C)oc(C)c1S(=O)(=O)NCc1ccc(Cl)cc1 was tested. Which Potency did it give?
**A.** The Potency was inconclusive: 28.2 µM [inhibitor, single point].

**Q.** With CSc1ccc(C2=NN(C(=O)CCC(=O)O)C(c3ccc4nccnc4c3)C2)cc1 (stereo not given) as the compound, how does the Potency read?
**A.** Its Potency is inconclusive: 79.4 µM [inhibitor, single point].

**Q.** With O=C(NCCn1c(-c2ccccc2)nc2ccccc21)NCc1ccccc1 as the compound, how does the “activity change, negative = inhibition” value read?
**A.** The value was inactive: 1.71%.

**Q.** With CCn1c(SCC(=O)c2cc(OC)ccc2OC)nnc1C(C)C as the compound, how does the Potency read?
**A.** The Potency was inconclusive: 31.6 µM [inhibitor, partial curve, poor fit].
